Experimental data taken from publication PMC6509187.
Results are given in words; binding and its absence hold for the method and conditions named. In cells and extracts the contact can be indirect. Some binding calls cover weakened binding; strength is not graded here. Sequences can lack the tags named with a protein.

The chains behind the UniProt entries cited, without tags or fusion partners.
UniProt Q00655: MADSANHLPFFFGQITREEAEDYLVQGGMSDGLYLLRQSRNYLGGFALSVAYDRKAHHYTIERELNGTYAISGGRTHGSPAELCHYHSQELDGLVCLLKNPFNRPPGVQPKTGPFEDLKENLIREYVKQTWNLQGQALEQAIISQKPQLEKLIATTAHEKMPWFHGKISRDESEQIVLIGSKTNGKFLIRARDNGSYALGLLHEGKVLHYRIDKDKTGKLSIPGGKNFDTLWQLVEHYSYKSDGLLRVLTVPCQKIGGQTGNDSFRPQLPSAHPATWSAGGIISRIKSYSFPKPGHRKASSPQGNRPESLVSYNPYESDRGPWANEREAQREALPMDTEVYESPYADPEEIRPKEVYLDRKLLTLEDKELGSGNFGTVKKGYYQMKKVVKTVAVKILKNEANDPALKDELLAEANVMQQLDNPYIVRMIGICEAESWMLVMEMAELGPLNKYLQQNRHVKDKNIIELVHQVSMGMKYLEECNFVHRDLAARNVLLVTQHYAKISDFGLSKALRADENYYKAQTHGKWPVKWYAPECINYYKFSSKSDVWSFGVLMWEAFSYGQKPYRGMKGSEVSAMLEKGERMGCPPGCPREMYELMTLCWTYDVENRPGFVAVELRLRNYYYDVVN

Target: Syk-myc-his (in HEK-293T cells) (pig) (UniProt Q00655)
Experiment: co-IP; HEK-293T cells cotransfected with 3×Flag-DAP12 and Syk-myc-his for 48 h; IP with anti-Myc or anti-Flag MAb; NP-40 lysis buffer

- binding: binds
B1: 3×Flag-DAP12 (in HEK-293T cells) (protein, UniProt Q9TU45 26-108)
chain: QRECSCSAVSPGILAGIVLGDLVLTLLIALAVYSLGRLVPRTRGAVDVTRKQHIAETESAYQELQGQRSDVYSDLNTQRQYYK
